According to PMC5435354:
No constants are given. Whether binding was seen depends on the method and setting. Binding seen in cells or lysates may run through a third protein. Some binding calls cover weakened binding; strength is not graded here. Tags and fused reporters may be left off the sequences shown.

T1: GFP-EDS1 (Enhanced disease susceptibility 1, GFP-tagged) (UniProt Q9SU72)
T1 sequence: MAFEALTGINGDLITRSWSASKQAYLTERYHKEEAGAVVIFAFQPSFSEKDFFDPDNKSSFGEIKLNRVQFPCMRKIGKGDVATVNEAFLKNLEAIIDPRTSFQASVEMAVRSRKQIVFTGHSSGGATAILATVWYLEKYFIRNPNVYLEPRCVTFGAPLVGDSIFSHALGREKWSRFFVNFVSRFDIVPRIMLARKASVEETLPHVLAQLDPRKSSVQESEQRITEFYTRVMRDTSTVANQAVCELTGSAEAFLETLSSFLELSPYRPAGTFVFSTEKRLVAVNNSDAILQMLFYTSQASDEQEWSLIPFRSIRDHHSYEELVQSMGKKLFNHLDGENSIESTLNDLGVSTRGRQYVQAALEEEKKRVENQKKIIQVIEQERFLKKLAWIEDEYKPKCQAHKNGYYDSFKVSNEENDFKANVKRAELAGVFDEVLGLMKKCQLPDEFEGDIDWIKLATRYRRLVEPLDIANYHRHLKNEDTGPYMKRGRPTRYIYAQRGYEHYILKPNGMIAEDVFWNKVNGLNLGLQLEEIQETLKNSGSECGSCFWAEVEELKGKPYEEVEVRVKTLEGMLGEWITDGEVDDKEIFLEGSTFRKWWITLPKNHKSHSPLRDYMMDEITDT

T2: PAD4-GFP (UniProt Q9S745)
T2 sequence: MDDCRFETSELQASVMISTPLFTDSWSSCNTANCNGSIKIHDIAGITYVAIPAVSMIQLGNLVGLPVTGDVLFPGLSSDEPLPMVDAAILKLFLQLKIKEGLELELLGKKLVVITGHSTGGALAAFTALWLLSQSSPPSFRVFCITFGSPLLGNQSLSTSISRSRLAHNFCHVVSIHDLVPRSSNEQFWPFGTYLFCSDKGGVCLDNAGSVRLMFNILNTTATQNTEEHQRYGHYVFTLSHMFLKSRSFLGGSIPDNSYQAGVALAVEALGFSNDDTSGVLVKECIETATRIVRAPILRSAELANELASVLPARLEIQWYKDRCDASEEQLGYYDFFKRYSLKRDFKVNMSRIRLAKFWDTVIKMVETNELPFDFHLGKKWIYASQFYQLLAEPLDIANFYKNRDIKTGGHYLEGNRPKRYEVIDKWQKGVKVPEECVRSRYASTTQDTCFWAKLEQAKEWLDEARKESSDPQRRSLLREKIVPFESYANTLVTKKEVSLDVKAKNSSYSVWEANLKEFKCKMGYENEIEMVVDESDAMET

B1: RPS4-HF (RPS4 with 3xHis-6xFLAG tag) (protein, UniProt Q9XGM3 1-1217)
chain: METSSISTVEDKPPQHQVFINFRGADLRRRFVSHLVTALKLNNINVFIDDYEDRGQPLDVLLKRIEESKIVLAIFSGNYTESVWCVRELEKIKDCTDEGTLVAIPIFYKLEPSTVRDLKGKFGDRFRSMAKGDERKKKWKEAFNLIPNIMGIIIDKKSVESEKVNEIVKAVKTALTGIPPEGSHNAVVGALGNSNAGTSSGDKKHETFGNEQRLKDLEEKLDRDKYKGTRIIGVVGMPGIGKTTLLKELYKTWQGKFSRHALIDQIRVKSKHLELDRLPQMLLGELSKLNHPHVDNLKDPYSQLHERKVLVVLDDVSKREQIDALREILDWIKEGKEGSRVVIATSDMSLTNGLVDDTYMVQNLNHRDSLQLFHYHAFIDDQANPQKKDFMKLSEGFVHYARGHPLALKVLGGELNKKSMDHWNSKMKKLAQSPSPNIVSVFQVSYDELTTAQKDAFLDIACFRSQDKDYVESLLASSDLGSAEAMSAVKSLTDKFLINTCDGRVEMHDLLYKFSREVDLKASNQDGSRQRRLWLHQHIIKGGIINVLQNKMKAANVRGIFLDLSEVEDETSLDRDHFINMGNLRYLKFYNSHCPQECKTNNKINIPDKLKLPLKEVRCLHWLKFPLETLPNDFNPINLVDLKLPYSEMEQLWEGDKDTPCLRWVDLNHSSKLCSLSGLSKAEKLQRLNLEGCTTLKAFPHDMKKMKMLAFLNLKGCTSLESLPEMNLISLKTLTLSGCSTFKEFPLISDNIETLYLDGTAISQLPMNMEKLQRLVVLNMKDCKMLEEIPGRVGELKALQELILSDCLNLKIFPEIDISFLNILLLDGTAIEVMPQLPSVQYLCLSRNAKISCLPVGISQLSQLKWLDLKYCTSLTSVPEFPPNLQCLDAHGCSSLKTVSKPLARIMPTEQNHSTFIFTNCENLEQAAKEEITSYAQRKCQLLSYARKRYNGGLVSESLFSTCFPGCEVPSWFCHETVGSELEVKLLPHWHDKKLAGIALCAVVSCLDPQDQVSRLSVTCTFKVKDEDKSWVAYTCPVGSWTRHGGGKDKIELDHVFIGYTSCPHTIKCHEEGNSDECNPTEASLKFTVTGGTSENGKYKVLKCGLSLVYAKDKDKNSALETKYDMLIGKSFQETSEGVDGRVKKTKGKYVMPVEKNFQETTEGVDGRVNKKKKTRMDNGRPKKKQRSGRDDNQTRMQVELQEGNINSVIMHTVKNF
B2: Myc-EDS1 (N-terminally Myc-tagged EDS1) (protein, UniProt Q9SU72 1-623)
chain: MAFEALTGINGDLITRSWSASKQAYLTERYHKEEAGAVVIFAFQPSFSEKDFFDPDNKSSFGEIKLNRVQFPCMRKIGKGDVATVNEAFLKNLEAIIDPRTSFQASVEMAVRSRKQIVFTGHSSGGATAILATVWYLEKYFIRNPNVYLEPRCVTFGAPLVGDSIFSHALGREKWSRFFVNFVSRFDIVPRIMLARKASVEETLPHVLAQLDPRKSSVQESEQRITEFYTRVMRDTSTVANQAVCELTGSAEAFLETLSSFLELSPYRPAGTFVFSTEKRLVAVNNSDAILQMLFYTSQASDEQEWSLIPFRSIRDHHSYEELVQSMGKKLFNHLDGENSIESTLNDLGVSTRGRQYVQAALEEEKKRVENQKKIIQVIEQERFLKKLAWIEDEYKPKCQAHKNGYYDSFKVSNEENDFKANVKRAELAGVFDEVLGLMKKCQLPDEFEGDIDWIKLATRYRRLVEPLDIANYHRHLKNEDTGPYMKRGRPTRYIYAQRGYEHYILKPNGMIAEDVFWNKVNGLNLGLQLEEIQETLKNSGSECGSCFWAEVEELKGKPYEEVEVRVKTLEGMLGEWITDGEVDDKEIFLEGSTFRKWWITLPKNHKSHSPLRDYMMDEITDT
B3: EDS1-Myc (C-terminally Myc-tagged EDS1) (protein, UniProt Q9SU72 1-623)
chain: MAFEALTGINGDLITRSWSASKQAYLTERYHKEEAGAVVIFAFQPSFSEKDFFDPDNKSSFGEIKLNRVQFPCMRKIGKGDVATVNEAFLKNLEAIIDPRTSFQASVEMAVRSRKQIVFTGHSSGGATAILATVWYLEKYFIRNPNVYLEPRCVTFGAPLVGDSIFSHALGREKWSRFFVNFVSRFDIVPRIMLARKASVEETLPHVLAQLDPRKSSVQESEQRITEFYTRVMRDTSTVANQAVCELTGSAEAFLETLSSFLELSPYRPAGTFVFSTEKRLVAVNNSDAILQMLFYTSQASDEQEWSLIPFRSIRDHHSYEELVQSMGKKLFNHLDGENSIESTLNDLGVSTRGRQYVQAALEEEKKRVENQKKIIQVIEQERFLKKLAWIEDEYKPKCQAHKNGYYDSFKVSNEENDFKANVKRAELAGVFDEVLGLMKKCQLPDEFEGDIDWIKLATRYRRLVEPLDIANYHRHLKNEDTGPYMKRGRPTRYIYAQRGYEHYILKPNGMIAEDVFWNKVNGLNLGLQLEEIQETLKNSGSECGSCFWAEVEELKGKPYEEVEVRVKTLEGMLGEWITDGEVDDKEIFLEGSTFRKWWITLPKNHKSHSPLRDYMMDEITDT
B4: RPS4-HA (Resistance to Pseudomonas syringae 4, HA-tagged) (protein, UniProt Q9XGM3 1-1217)
chain: METSSISTVEDKPPQHQVFINFRGADLRRRFVSHLVTALKLNNINVFIDDYEDRGQPLDVLLKRIEESKIVLAIFSGNYTESVWCVRELEKIKDCTDEGTLVAIPIFYKLEPSTVRDLKGKFGDRFRSMAKGDERKKKWKEAFNLIPNIMGIIIDKKSVESEKVNEIVKAVKTALTGIPPEGSHNAVVGALGNSNAGTSSGDKKHETFGNEQRLKDLEEKLDRDKYKGTRIIGVVGMPGIGKTTLLKELYKTWQGKFSRHALIDQIRVKSKHLELDRLPQMLLGELSKLNHPHVDNLKDPYSQLHERKVLVVLDDVSKREQIDALREILDWIKEGKEGSRVVIATSDMSLTNGLVDDTYMVQNLNHRDSLQLFHYHAFIDDQANPQKKDFMKLSEGFVHYARGHPLALKVLGGELNKKSMDHWNSKMKKLAQSPSPNIVSVFQVSYDELTTAQKDAFLDIACFRSQDKDYVESLLASSDLGSAEAMSAVKSLTDKFLINTCDGRVEMHDLLYKFSREVDLKASNQDGSRQRRLWLHQHIIKGGIINVLQNKMKAANVRGIFLDLSEVEDETSLDRDHFINMGNLRYLKFYNSHCPQECKTNNKINIPDKLKLPLKEVRCLHWLKFPLETLPNDFNPINLVDLKLPYSEMEQLWEGDKDTPCLRWVDLNHSSKLCSLSGLSKAEKLQRLNLEGCTTLKAFPHDMKKMKMLAFLNLKGCTSLESLPEMNLISLKTLTLSGCSTFKEFPLISDNIETLYLDGTAISQLPMNMEKLQRLVVLNMKDCKMLEEIPGRVGELKALQELILSDCLNLKIFPEIDISFLNILLLDGTAIEVMPQLPSVQYLCLSRNAKISCLPVGISQLSQLKWLDLKYCTSLTSVPEFPPNLQCLDAHGCSSLKTVSKPLARIMPTEQNHSTFIFTNCENLEQAAKEEITSYAQRKCQLLSYARKRYNGGLVSESLFSTCFPGCEVPSWFCHETVGSELEVKLLPHWHDKKLAGIALCAVVSCLDPQDQVSRLSVTCTFKVKDEDKSWVAYTCPVGSWTRHGGGKDKIELDHVFIGYTSCPHTIKCHEEGNSDECNPTEASLKFTVTGGTSENGKYKVLKCGLSLVYAKDKDKNSALETKYDMLIGKSFQETSEGVDGRVKKTKGKYVMPVEKNFQETTEGVDGRVNKKKKTRMDNGRPKKKQRSGRDDNQTRMQVELQEGNINSVIMHTVKNF

How the values were obtained:
[1] = biological target: T1, GFP-EDS1 (Enhanced disease susceptibility 1, GFP-tagged); assay: co-IP
PAD4-GFP = biological target: T2, PAD4-GFP; assay: co-IP

Row | Binder | binding [1] | binding (PAD4-GFP)
1 | B1 | binds | 
2 | B2 |  | binds
3 | B3 |  | binds
4 | B4 | binds | 
